Measurements as given in PMC10861516.

Target: T1, Flag-tagged human EFHD2 (EF-hand domain-containing protein D2) (human) (UniProt Q96C19)
T1 sequence: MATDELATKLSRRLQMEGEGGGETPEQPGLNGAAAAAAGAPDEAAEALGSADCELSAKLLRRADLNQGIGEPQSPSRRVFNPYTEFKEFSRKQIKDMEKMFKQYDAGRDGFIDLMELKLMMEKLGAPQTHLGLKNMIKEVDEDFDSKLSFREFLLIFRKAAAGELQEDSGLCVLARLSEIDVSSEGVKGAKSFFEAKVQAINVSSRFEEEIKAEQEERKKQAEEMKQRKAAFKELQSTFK
Assay: affinity purification with mass spectrometry; HCT-116 cells transfected with FLAG-EFHD2, treated with 50 ng/ml TNF; proteins immunoprecipitated by FLAG beads, separated, silver stained, LC-MS

- binding: binds
Substance: Cofilin (human (endogenous in HCT-116))

These are yes or no findings as the source states them, for the method shown. Binding seen in cells or lysates may run through a third protein. A yes stands for co-enrichment or nearness to the bait. Other partners may have been found. Tags and fused reporters may be left off the sequences shown.
